This note sets out measurements from patent US20190046490A1, “METHODS OF TREATING LACTOSE INTOLERANCE” (Nogra Pharma Limited, priority 2016, published 2019).

The data set has as its system LCT gene. As to the kind of experiment: Transcriptome microarray analysis of LCT mRNA expression in Caco-2 cells treated with PPARγ modulators. Type of data set: cell-based, human. The following applies: rank of LCT among regulated genes. The protocol: Caco-2 (colonic adenocarcinoma) cells were grown in Dulbecco's Modified Eagle's Medium (DMEM, Invitrogen, Life Technologies, Cergy-Pontoise, France) supplemented with 20% foetal calf serum (FCS, Dutscher, Brumath, France), 1% penicillin-streptomycin (5 ml/l) (Invitrogen, Life technologies) and 1% non-essential amino acids (5 ml/l) (Invitrogen, Life technologies). All cell lines were cultured as confluent monolayers at 37° C. in a controlled, 5% CO2 atmosphere.
For cell stimulations, 1×10^6 cells per well were seeded in 6-well plates. Cells were serum deprived for 16 hours prior to stimulation in order to synchronize the cells. Cells were treated with GED (Nogra Pharma Ltd, Ireland), pioglitazone (1 μM, Sigma-Aldrich) or CLA (various concentrations, Sigma-Aldrich). When necessary, the DMSO vehicle (Sigma-Aldrich) was used as control. After 24 hours of stimulation, cells were washed three times with sterile PBS before RNA extraction. Cell stimulations were performed in 4 replicates for microarray analysis and in 3, 4 or 6 replicates for other stimulations.
Cells were lysed with lysis buffer (RA1, Macherey-Nagel) containing 1% β-mercaptoethanol. Total RNA was extracted with a Nucleospin RNA kit (Macherey-Nagel, Hoerdt, France). […] The purity of the RNA was evaluated by UV spectroscopy on a Nanodrop system (Nyxor Biotech, Paris, France) from 220 to 350 nm. […]
Dual-colour gene expression microarrays were used to compare the cRNA from the samples. […] The RNAs from the samples were first reverse-transcribed into cDNA (Affinity-Script RT, Agilent), which were then used as the substrate for the synthesis and amplification of cRNA by T7 RNA polymerase in the presence of cyanine 3-CTP for the CTL sample (green fluorescence) and cyanine 5-CTP for the PPAR-γ y modulator sample (red fluorescence). […] Fluorescence was visualized after laser excitation and the relative intensities of the two fluorophores were expressed as a ratio, in order to yield the over- or under-expression status of each gene (using GeneSpring software (Agilent)). […]

With `Nc1ccc(O)c(C(=O)O)c1` [5ASA, 5-aminosalicylic acid], the Rank (30 mM) was 16/1574.
Regarding `COC(Cc1ccc(N)cc1)C(=O)O` (stereo not drawn) [GED, 3-(4′-aminophenyl)2-methoxypropionic acid], the Rank was 1/46 (1 mM) and 1/355 (30 mM).
